{"source": "paper PMC6803390", "target": "T1, p140Cap adaptor protein (UniProt Q9QWI6)", "T1 sequence": "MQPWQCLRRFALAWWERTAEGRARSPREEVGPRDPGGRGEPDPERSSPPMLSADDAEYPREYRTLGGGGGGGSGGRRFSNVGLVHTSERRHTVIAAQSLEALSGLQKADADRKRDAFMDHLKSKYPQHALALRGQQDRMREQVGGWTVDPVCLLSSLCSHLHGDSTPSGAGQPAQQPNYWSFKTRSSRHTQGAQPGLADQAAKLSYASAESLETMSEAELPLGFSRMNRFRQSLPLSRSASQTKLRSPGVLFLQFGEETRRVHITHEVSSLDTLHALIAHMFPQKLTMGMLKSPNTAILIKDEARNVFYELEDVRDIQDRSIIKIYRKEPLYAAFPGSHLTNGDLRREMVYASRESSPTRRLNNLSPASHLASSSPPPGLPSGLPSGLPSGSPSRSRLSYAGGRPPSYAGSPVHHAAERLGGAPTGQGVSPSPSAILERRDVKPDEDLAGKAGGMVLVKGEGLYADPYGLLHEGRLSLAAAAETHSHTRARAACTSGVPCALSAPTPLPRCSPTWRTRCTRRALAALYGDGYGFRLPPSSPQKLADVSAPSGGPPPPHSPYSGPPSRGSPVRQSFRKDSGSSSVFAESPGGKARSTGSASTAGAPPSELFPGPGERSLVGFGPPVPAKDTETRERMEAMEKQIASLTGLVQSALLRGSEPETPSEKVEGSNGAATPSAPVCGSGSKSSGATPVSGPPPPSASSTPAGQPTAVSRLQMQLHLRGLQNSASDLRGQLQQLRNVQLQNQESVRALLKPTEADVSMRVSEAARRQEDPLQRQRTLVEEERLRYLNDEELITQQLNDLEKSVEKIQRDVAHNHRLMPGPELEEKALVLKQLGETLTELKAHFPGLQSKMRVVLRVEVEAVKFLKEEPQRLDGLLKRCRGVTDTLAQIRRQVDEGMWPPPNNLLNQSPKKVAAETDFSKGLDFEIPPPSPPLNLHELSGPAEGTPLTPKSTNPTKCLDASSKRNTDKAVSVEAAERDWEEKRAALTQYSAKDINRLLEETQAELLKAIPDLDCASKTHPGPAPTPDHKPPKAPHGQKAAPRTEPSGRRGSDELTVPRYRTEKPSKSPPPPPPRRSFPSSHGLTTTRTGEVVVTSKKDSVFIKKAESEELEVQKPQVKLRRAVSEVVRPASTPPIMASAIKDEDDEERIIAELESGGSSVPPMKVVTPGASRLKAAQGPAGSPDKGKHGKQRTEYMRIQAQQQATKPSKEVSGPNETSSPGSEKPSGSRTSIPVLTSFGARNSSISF", "assay": "co-IP; p140Cap immunoprecipitates (p140Cap Mab on protein G Dynabeads) from p140 and mock TUBO cell extracts, Western blot with specific antibodies", "note": "Results are given in words; binding and its absence hold for the method and conditions named. Binding seen in cells or lysates may run through a third protein."}
{"substance": "Talin (mouse (endogenous in TUBO cells))", "values": [{"measurement": "binding", "result": "no binding"}]}
